These are yes or no findings as the source states them, for the method shown. Some results given as binding are weak or reduced against the parent protein; the word gives no strength.
Legend:
[1] = molecular target: rhesus CD40 (rhesus macaque) (UniProt F6SNI1); assay: flow cytometry, rhesus PBMCs cultured with MAB273 in vitro, competition with the CD40 staining antibody
[2] = molecular target: rhesus CD40 (rhesus macaque) (UniProt F6SNI1); assay: flow cytometry of rhesus PBMCs after administration in vivo; loss of binding of a competing fluorescent antibody
[3] = molecular target: rhesus CD40 (rhesus macaque) (UniProt F6SNI1); assay: summary of the in vivo rhesus study (flow cytometry)

Sequences of proteins named here, by UniProt entry; tags and fusion partners are left off. A change or cut given only in a name is not applied to a line headed by its entry. A line that says so, or that is headed by a name, gives the form on record, which may keep a tag or linker.
rhesus CD40 (F6SNI1, form named): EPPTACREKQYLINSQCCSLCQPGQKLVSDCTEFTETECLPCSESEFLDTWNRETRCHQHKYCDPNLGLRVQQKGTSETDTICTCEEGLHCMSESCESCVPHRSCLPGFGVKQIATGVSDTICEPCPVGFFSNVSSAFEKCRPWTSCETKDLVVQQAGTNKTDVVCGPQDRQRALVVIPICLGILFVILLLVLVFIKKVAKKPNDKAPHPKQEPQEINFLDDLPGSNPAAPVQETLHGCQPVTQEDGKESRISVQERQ

Measured: binding

B1: MAB273 (antibody, V domains shown)
VH: EVQLEESGGGLVQPGGSLRLSCAASGFDFSSNTMCWVRQAPGKGLEWVACIYAGSSGSTYYASWAKGRFTISKDISKTTLYLQMNSLRAEDTATYFCARGLSRFSLWGQGTLVTVSS
VL: DIVMTQSPSSLSASVGDRVTITCQASQSISNYLAWYQQKPGQAPKLLIYDASKLASGVPSRFSGSGSGTDFTLTISSLQPEDFATYYCQGGDYYGSSYVVAFGGGTKVVIK
binds: all assays above
